# Reference: PubChem BioAssay AID504327 (National Center for Advancing Translational Sciences (NCATS), 2011)
# Protein sequences, listed by entry. Tags and fused reporters are not part of them.
# UniProt Q92830, whole entry, looked up: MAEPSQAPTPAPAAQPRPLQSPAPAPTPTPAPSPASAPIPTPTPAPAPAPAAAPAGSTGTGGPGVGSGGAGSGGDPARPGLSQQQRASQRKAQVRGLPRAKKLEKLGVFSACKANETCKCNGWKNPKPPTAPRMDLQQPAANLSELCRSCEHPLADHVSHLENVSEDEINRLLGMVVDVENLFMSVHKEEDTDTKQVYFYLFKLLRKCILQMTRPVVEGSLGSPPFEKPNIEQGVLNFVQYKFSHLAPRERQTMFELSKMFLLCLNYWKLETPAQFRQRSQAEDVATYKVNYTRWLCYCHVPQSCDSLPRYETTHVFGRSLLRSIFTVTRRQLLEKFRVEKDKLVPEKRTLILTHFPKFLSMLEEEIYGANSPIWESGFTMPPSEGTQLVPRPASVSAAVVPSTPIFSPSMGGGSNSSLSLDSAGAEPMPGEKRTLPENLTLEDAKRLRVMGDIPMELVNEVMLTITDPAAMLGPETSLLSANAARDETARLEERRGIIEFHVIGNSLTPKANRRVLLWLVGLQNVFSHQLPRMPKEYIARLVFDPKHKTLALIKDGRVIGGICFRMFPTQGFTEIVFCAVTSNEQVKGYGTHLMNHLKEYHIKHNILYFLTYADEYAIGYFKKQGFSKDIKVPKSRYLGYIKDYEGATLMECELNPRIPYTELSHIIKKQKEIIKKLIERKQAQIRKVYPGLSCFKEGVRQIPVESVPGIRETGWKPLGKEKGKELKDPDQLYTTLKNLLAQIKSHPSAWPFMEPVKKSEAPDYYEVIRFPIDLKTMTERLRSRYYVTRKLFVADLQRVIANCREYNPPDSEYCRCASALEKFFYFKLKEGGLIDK
# The campaign covered roughly 390,000 compounds. About 820 (0.21%) were called active. Inconclusive results, whose numbers are uncertain, are shown with a selection of clear calls. The call rests on the fitted dose curve; in most records, active means well fitted inhibition curve with a large enough effect; inconclusive means small, poorly fitted or top-dose-only effect, or another doubt; inactive means no such curve, though single readings can be large or run the other way. Potencies of inconclusive entries are doubtful fits and often do not repeat.
# Target: Histone acetyltransferase KAT2A (Homo sapiens) (UniProt Q92830)
# Experiment: qHTS Assay for Inhibitors of GCN5L2
# Conditions: GCN5L2 HAT assay, ThioGlo1 CoA-SH fluorescence; activity change, negative = inhibition: at 58.9 µM (top of the series) unless noted
# In short: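 Titration-based screen in which CoA formation is detected via maleimide probe ThioGlo1 (50uM) turning fluorescent on thiol reaction; substrates H3(1-25) 75uM and acetyl-CoA 70uM, GCN5L2 20nM, 20 min incubation at room temperature.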
# On the % scale 0 is the no-effect control and ±100 the full control effect; potency means the concentration at half of the fitted maximal effect.
Compound,Potency,"activity change, negative = inhibition"
Oc1ccc(Cl)c2cccnc12,"inconclusive: 39.8 µM [inhibitor, single point]",–
COc1ccc(C=NNc2ccc(S(=O)(=O)Nc3ccccc3C(=O)O)cc2[N+](=O)[O-])c(OC)c1,"inconclusive: 14.1 µM [inhibitor, single point]",–
Cc1cc(C)n(S(=O)(=O)/C=C/c2ccccc2)n1,–,inactive: -3.89%
N#CC(c1ccc(Cl)cc1)c1c(Cl)cc(-n2ncc(=O)[nH]c2=O)cc1Cl (stereo not given),"inconclusive: 39.8 µM [inhibitor, single point]",–
O=C1C=CC(=O)C(C2=C3C(=O)N(CCc4ccccc4)CC(=O)N3CCC2)=C1,active: 14.1 µM,–
COC(=O)c1c(NC(=O)c2ccccc2)sc(C(=O)c2ccccc2)c1C,"inconclusive: 2.51 µM [inhibitor, partial curve]",–
O=c1ccc2ccc(O)c(O)c2o1,"inconclusive: 39.8 µM [inhibitor, single point]",–
CCOC(=O)c1[nH]c2cc(OC)c(OC)cc2c1NC(=O)c1ccc2c(c1)OCO2,"inconclusive: 15.8 µM [inhibitor, partial curve, poor fit]",–
COCCNC(=O)CCn1c(=O)[nH]c2cc(OC)c(OC)cc2c1=O,–,inactive: 2.86%
CCCCNC(=O)C1CC(c2ccccc2[N+](=O)[O-])=NO1 (stereo not given),"inconclusive: 28.2 µM [inhibitor, single point]",–
COc1ccc(OC(=O)c2cc(S(=O)(=O)N3CCCC3)ccc2Cl)cc1,"inconclusive: 1 µM [inhibitor, full curve, poor fit]",–
CCCNC(=O)c1ccc(S(N)(=O)=O)cc1,"inconclusive: 4.47 µM [inhibitor, full curve, poor fit]",–
COc1ccccc1-n1c(-c2ccccc2)c[nH]c1=S,–,inactive: -6.68%
O=C1CC(N2CCN(S(=O)(=O)c3ccccc3F)CC2)C(=O)N1c1ccccc1Cl (stereo not given),–,inactive: 2.43%
Cc1ccccc1CN1CCN(C(=O)CC(C)C)CC1,"inconclusive: 31.6 µM [inhibitor, single point]",–
O=C(CN1C(=O)COc2ccc(S(=O)(=O)N3CCCC3)cc21)NCCc1ccc(Cl)cc1,–,inactive: 1.98%
CN(Cc1cnn(C)c1)C(=O)c1cc(COc2c(F)cccc2F)on1,"inconclusive: 0.891 µM [inhibitor, single point]",–
CC1(C)CCc2cc(-c3ccnc(=S)[nH]3)ccc2O1,"inconclusive: 39.8 µM [inhibitor, single point]",–
N#Cc1cc(C(=O)c2cc(F)ccc2O)cn(-c2nccs2)c1=O,–,inactive: -10.3%
O=C(NC(Cc1ccccc1)C(=O)Oc1ccc2c(C(F)(F)F)cc(=O)oc2c1)OCc1ccccc1 (stereo not given),"inconclusive: 39.8 µM [inhibitor, single point]",–
O=C(O)CN1C(=O)/C(=C\c2cccc(OCc3ccc(Cl)cc3Cl)c2)SC1=S,"inconclusive: 35.5 µM [inhibitor, partial curve, poor fit]",–
CCCn1c(CNc2ccccc2O)nc2ccccc21,"inconclusive: 39.8 µM [inhibitor, single point]",–
CCN(CC(=O)NCc1ccc(Cl)cc1)C(=O)CSCC(=O)Nc1cccc(C)c1,–,inactive: -22.5%
Cc1ccc(NC(=O)c2cnc(SCC(=O)N3CCCc4ccccc43)n(C)c2=O)cc1C,–,inactive: -1%

Compound,Potency,"activity change, negative = inhibition"
COCCCn1c(=O)c2sccc2n(Cc2cccc(F)c2)c1=O,"inconclusive: 0.794 µM [inhibitor, single point]",–
COC(=O)c1ccc(Cn2c(C)cc(C)[n+]2C)o1,–,inactive: 1.45%
O=S(=O)(c1cccc2c(I)cccc12)N1CCCNCC1,"inconclusive: 39.8 µM [inhibitor, single point]",–
CCOC(=O)CNC(=O)CNC(=O)Cn1ccc2ccccc2c1=O,–,inconclusive: -93% [inhibitor] [at 0.501 µM]
Cc1ccc(S(=O)(=O)CCC(=O)Nc2ccccc2N2CCCC2)cc1,–,inactive: -12.6%
O=C(NC1CCCc2ccccc21)C1CCCC1 (stereo not given),"inconclusive: 3.55 µM [inhibitor, partial curve]",–
O=C(CCc1nc(-c2ccccc2F)no1)NCCN1CCN(Cc2ccccc2)CC1,–,inactive: 0.383%
Cc1noc(C)c1-c1nc(Nc2ccc(F)cc2)c2ccccc2n1,"inconclusive: 35.5 µM [inhibitor, single point]",–
OC1(C#CCN2CCCC2)c2ccccc2-c2ccccc21,"inconclusive: 1.12 µM [inhibitor, full curve]",–
O=C(O)c1ccccc1NS(=O)(=O)c1ccc(NN=Cc2cccc(Cl)c2)c([N+](=O)[O-])c1,"inconclusive: 31.6 µM [inhibitor, single point]",–
Cc1ccc(CCNC(=O)c2cc(S(=O)(=O)N3CCOCC3)cn2C)cc1,"inconclusive: 0.501 µM [inhibitor, partial curve, poor fit]",–
O=C(COc1ccc(S(=O)(=O)Nc2cccc(C(F)(F)F)c2)cc1)N1CCOCC1,"inconclusive: 0.794 µM [inhibitor, full curve, poor fit]",–
COc1ccccc1-n1cc(CN2CCN(C3CCCC3)C(CCO)C2)cn1 (stereo not given),"inconclusive: 0.891 µM [inhibitor, single point]",–
S=C(Nc1ccccc1Cl)Nc1ccc(Cl)cc1Cl,"inconclusive: 7.08 µM [inhibitor, single point]",–
CC1=CC23C(=O)C(C=C(CO)[C@@H](O)[C@]2(O)[C@H]1O)[C@H]1[C@@H](C[C@H]3C)C1(C)C (stereo not given in full),–,inactive: -20.6%
O=C(NCc1ccccc1C(F)(F)F)C1CCC(=O)N(C2CCCCCC2)C1 (stereo not given),"inconclusive: 6.31 µM [inhibitor, single point]",–
O=C(COc1cccc2ccccc12)N/N=C/c1ccccc1OCc1ccc(C(=O)O)cc1,"inconclusive: 39.8 µM [inhibitor, single point]",–
Cc1cc(C)n2nc(CNS(=O)(=O)c3ccc(F)c(C)c3)nc2n1,"inconclusive: 0.631 µM [inhibitor, single point]",–
CCOC(=O)c1sc(=S)n(C)c1NC(=O)c1ccccc1,–,inactive: -4.81%
O=C(/C=C/c1cccc([N+](=O)[O-])c1)NCCSc1ccccc1,"inconclusive: 0.316 µM [inhibitor, full curve, poor fit]",–
COc1cccc(-c2cncnc2NCCN2CCOCC2)c1,–,inactive: -2.83%
CCN(CC)CCNC(=O)C(C)c1nn(C)c(=O)c2ccccc12 (stereo not given),"inconclusive: 31.6 µM [inhibitor, single point]",–
COc1ccc(C(=O)c2no[n+]([O-])c2C(=O)c2ccc(OC)cc2)cc1,"inconclusive: 3.98 µM [inhibitor, single point]",–
c1ccn(-c2ccc(N3CCOCC3)cc2)c1,"inconclusive: 35.5 µM [inhibitor, single point]",–

Compound,Potency,"activity change, negative = inhibition"
Clc1cccc(/C(Cc2nc3ccccc3[nH]2)=N\Nc2ccccc2)c1,"inconclusive: 39.8 µM [inhibitor, single point]",–
Cc1c2cnn(CC(=O)N3CCOCC3)c(=O)c2c(C)n1Cc1ccccc1F,"inconclusive: 0.112 µM [inhibitor, full curve, poor fit]",–
H-HSDAIFTQQYSKLLAKLALQKYLASILGSRTSPPP-NH2,"inconclusive: 39.8 µM [inhibitor, single point]",–
Nc1ccc(-c2sc(N)nc2-c2ccccc2)cc1,"inconclusive: 25.1 µM [inhibitor, single point]",–
CCCCCCCCCCCCOS(=O)(=O)O,"inconclusive: 35.5 µM [inhibitor, single point]",–
COc1cccc(CNC(=O)C2CCC(=O)N(CCc3cccc(F)c3)C2)c1 (stereo not given),"inconclusive: 0.1 µM [inhibitor, full curve, poor fit]",–
CCn1cc(/C=C(\NC(=O)c2ccc(OC)cc2)C(=O)N2CCN(C)CC2)c2ccccc21,–,inactive: -22.1%
COc1ccc(C(O)P(=O)(OC(C)C)OC(C)C)c(OC)c1 (stereo not given),–,inactive: 0.881%
Cc1ccc(Cn2c(Cc3ccccc3)nc3ccccc32)cc1,inactive,–
COC(=O)c1ccc(NC(=O)c2cc3cc4ccc(OC)c(Cl)c4nc3s2)cc1,–,inactive: 1.48%
CCOc1cc(CN2CCCCCC2)ccc1OC,"inconclusive: 3.98 µM [inhibitor, single point]",–
Cc1ccc(NC(=O)C2CCN(S(=O)(=O)c3ccc4c(c3)OCCO4)CC2)nc1,"inconclusive: 0.891 µM [inhibitor, single point]",–
COc1ccc(N(C(=O)c2ccc(Br)o2)C2C=CS(=O)(=O)C2)cc1 (stereo not given),"inconclusive: 0.794 µM [inhibitor, partial curve, poor fit]",–
CCOC(=O)COc1ccccc1/C=N\NC(=O)c1cc2c(ccc3ccccc32)o1,–,inactive: -15.8%
Oc1c(C(Nc2ccccn2)c2ccccn2)ccc2cccnc12 (stereo not given),–,inactive: -14.9%
Cc1cc(=O)[nH]c(=O)n1Cc1ccccc1,–,inactive: -3%
CNc1oc(-c2ccccc2F)nc1S(=O)(=O)c1ccc(C)cc1,"inconclusive: 0.355 µM [inhibitor, full curve, poor fit]",–
COc1cc(NS(=O)(=O)c2ccc(NC(=S)Nc3ccccc3)cc2)nc(OC)n1,"inconclusive: 0.708 µM [inhibitor, full curve, poor fit]",–
NC(=S)NN=Cc1ccc(-c2ccc(S(=O)(=O)Nc3ncccn3)cc2)o1,"inconclusive: 31.6 µM [inhibitor, single point]",–
NC(=O)c1cc[n+](CC2=C(C(=O)[O-])N3C(=O)[C@@H](NC(=O)Cc4cccs4)[C@@H]3SC2)cc1,–,inactive: -22.9% [at 21.4 µM]
CN(C(=O)CCS(=O)(=O)c1ccc2c(c1)oc(=O)n2C)C1CCCCC1,"inconclusive: 2.82 µM [inhibitor, partial curve, poor fit]",–
Cc1ccc(C(=O)NC(=S)Nc2ccc(N3CCOCC3)cc2)cc1C,–,inactive: -3.68%

# Two records picked at random from those above, as already listed:
Compound,Potency,"activity change, negative = inhibition"
O=c1ccc2ccc(O)c(O)c2o1,"inconclusive: 39.8 µM [inhibitor, single point]",–
COc1cccc(-c2cncnc2NCCN2CCOCC2)c1,–,inactive: -2.83%

# Complete entries as entered above:
# CCn1cc(/C=C(\NC(=O)c2ccc(OC)cc2)C(=O)N2CCN(C)CC2)c2ccccc21 is listed with activity change, negative = inhibition: inactive: -22.1%
# COc1cccc(-c2cncnc2NCCN2CCOCC2)c1 is listed with activity change, negative = inhibition: inactive: -2.83%
# COc1ccccc1-n1c(-c2ccccc2)c[nH]c1=S is listed with activity change, negative = inhibition: inactive: -6.68%
